The record followed here is patent US20120289884A1, “Fused Ring Diarylamino Photosensitizers for Phototherapy” (Mallinckrodt LLC, priority 2011, published 2012).

Structures are written as SMILES.

This data set in a line: ESR spectroscopy of free radical generation upon photoexcitation.

`c1ccc2c(c1)Sc1ccccc1S2` [(FX21)a, thianthrene]: the “free radical generation detected by ESR” value (photoexcitation with UV-A and/or UV-B light) is on record as “no radicals could be detected”.

With `C1=Cc2ccccc2Nc2ccccc21` [(FX8), 5H-Dibenz[b,f]azepine], for the setting “ESR without DMPO, benzene solution”, the “lifetime of the radical from photolysis (t1/2)” value was found to be 20 s.
